Measurements published in the supplement of paper PMC6078165.

Test system: MDAMB436
Test: relative JC-1 red fluorescence (viability) vs pre-drug, coculture with fibroblast (fraction); higher = more viable cancer cells
Method: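 JC-1 labelled TNBC cells cocultured 1:1 (1,500 cells each) with CellTrace Violet stained primary or stromal fibroblasts in 384-well plates in FluoroBrite medium, treated with one of 42 anticancer drugs at 0.1, 1, 10 or 100 uM. JC-1 red fluorescence (mitochondrial integrity in cancer cells only) was read by plate reader every 8 h for 72 h. Values are normalised to each well's pre-drug value. The stock of one drug was tenfold lower, so its dose labels may be too high.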

CC(=O)O[C@@]12CO[C@@H]1C[C@H](O)[C@@]1(C)C(=O)[C@H](O)C3=C(C)[C@@H](OC(=O)[C@H](O)[C@@H](NC(=O)OC(C)(C)C)c4ccccc4)C[C@@](O)([C@@H](OC(=O)c4ccccc4)[C@H]21)C3(C)C [Docetaxel]
relative JC-1 red fluorescence
Conditions	8 h	16 h	24 h	32 h	40 h	48 h	56 h	64 h	72 h
0.1 µM, coculture fibroblast: C12385	0.738	0.68	0.653	0.575	0.528	0.515	0.509	0.513	0.521
0.1 µM, coculture fibroblast: H6013	0.766	0.731	0.715	0.716	0.722	0.766	0.757	0.778	0.763
0.1 µM, coculture fibroblast: H6019	0.709	0.657	0.625	0.5519	0.516	0.51	0.496	0.485	0.484
0.1 µM, coculture fibroblast: H6076	0.766	0.7129	0.701	0.652	0.658	0.648	0.672	0.682	0.695
0.1 µM, coculture fibroblast: H6231	0.7459	0.655	0.675	0.59	0.586	0.559	0.553	0.542	0.527
0.1 µM, coculture fibroblast: HADF	0.81	0.73	0.702	0.681	0.682	0.7077	0.668	0.67095	0.645
0.1 µM, coculture fibroblast: HCFa	0.7316	0.686	0.66	0.633	0.616	0.643	0.595	0.59	0.548
0.1 µM, coculture fibroblast: HCPF	0.755	0.6916	0.695	0.6462	0.657	0.6288	0.6328	0.62	0.6124
0.1 µM, coculture fibroblast: HHSteC	0.7867	0.771	0.741	0.727	0.72	0.737	0.689	0.681	0.64
0.1 µM, coculture fibroblast: HMF	0.7279	0.6707	0.648	0.606	0.6039	0.5674	0.5738	0.556	0.5489
0.1 µM, coculture fibroblast: HPFa	0.875	0.788	0.753	0.701	0.688	0.6903	0.627	0.6202	0.579
0.1 µM, coculture fibroblast: HUF	0.865	0.759	0.757	0.693	0.645	0.623	0.608	0.599	0.594
0.1 µM, coculture fibroblast: Hs5	0.745	0.6911	0.6855	0.634	0.643	0.6175	0.64	0.6214	0.6426
0.1 µM, coculture fibroblast: Hs27A	0.8131	0.735	0.732	0.733	0.749	0.842	0.781	0.798	0.745
0.1 µM, coculture fibroblast: Hs343T	0.709	0.652	0.616	0.578	0.569	0.538	0.537	0.525	0.52
0.1 µM, coculture fibroblast: WS1	0.742	0.698	0.673	0.588	0.552	0.529	0.516	0.503	0.508
1 µM, coculture fibroblast: C12385	0.81869	0.744	0.674	0.614	0.568	0.549	0.533	0.523	0.528
1 µM, coculture fibroblast: H6013	0.864	0.791	0.771	0.782	0.789	0.828	0.82	0.832	0.819
1 µM, coculture fibroblast: H6019	0.791	0.681	0.686	0.627	0.602	0.591	0.565	0.553	0.539
1 µM, coculture fibroblast: H6076	0.726	0.622	0.636	0.61	0.615	0.611	0.654	0.67	0.693
1 µM, coculture fibroblast: H6231	0.767	0.6781	0.645	0.572	0.549	0.525	0.525	0.505	0.495
1 µM, coculture fibroblast: HADF	0.847	0.7566	0.73	0.712	0.707	0.724	0.683	0.6894	0.6675
1 µM, coculture fibroblast: HCFa	0.847	0.735	0.721	0.684	0.65	0.663	0.616	0.606	0.556
1 µM, coculture fibroblast: HCPF	0.779	0.701	0.659	0.622	0.6	0.571	0.557	0.543	0.526
1 µM, coculture fibroblast: HHSteC	0.84	0.774	0.744	0.718	0.712	0.727	0.678	0.667	0.635
1 µM, coculture fibroblast: HMF	0.7588	0.661	0.649	0.616	0.608	0.586	0.587	0.573	0.571
1 µM, coculture fibroblast: HPFa	0.91	0.858	0.812	0.771	0.745	0.757	0.689	0.6752	0.639
1 µM, coculture fibroblast: HUF	0.844	0.749	0.7134	0.6313	0.573	0.537	0.512	0.504	0.501
1 µM, coculture fibroblast: Hs5	0.77263	0.692	0.708	0.674	0.674	0.658	0.686	0.68	0.691
1 µM, coculture fibroblast: Hs27A	0.873	0.825	0.758	0.75808	0.7565	0.822	0.768	0.789	0.728
1 µM, coculture fibroblast: Hs343T	0.751	0.6323	0.588	0.549	0.525	0.492	0.4879	0.4833	0.476
1 µM, coculture fibroblast: WS1	0.8	0.693	0.671	0.595	0.556	0.533	0.515	0.503	0.507

The reference is the same well before dosing, and untreated signal decays as well.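 Fibroblast labels denote human fibroblasts, mainly primary ones from uterus (C12385, HUF), lung (H6013), bone (Hs27A), adrenal (HADF) and skin (WS1), plus mammary HMF and breast cancer-associated Hs343T. Cancer cells are basal-like or mesenchymal-like triple-negative breast cancer lines. A hit is a response shift exceeding 3x replicate standard deviation. The tissue of the other fibroblasts is not given here.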
